{"source": "patent US9045415B2", "about": "“Targeting of EWS-FLI1 as anti-tumor therapy” (Georgetown University, priority 2006, dated 2015)", "molecular_target": "T1, recombinant EWS-FLI1 (Homo sapiens, UniProt Q01543+Q01844)", "T1 sequence (Q01543 1-452)": "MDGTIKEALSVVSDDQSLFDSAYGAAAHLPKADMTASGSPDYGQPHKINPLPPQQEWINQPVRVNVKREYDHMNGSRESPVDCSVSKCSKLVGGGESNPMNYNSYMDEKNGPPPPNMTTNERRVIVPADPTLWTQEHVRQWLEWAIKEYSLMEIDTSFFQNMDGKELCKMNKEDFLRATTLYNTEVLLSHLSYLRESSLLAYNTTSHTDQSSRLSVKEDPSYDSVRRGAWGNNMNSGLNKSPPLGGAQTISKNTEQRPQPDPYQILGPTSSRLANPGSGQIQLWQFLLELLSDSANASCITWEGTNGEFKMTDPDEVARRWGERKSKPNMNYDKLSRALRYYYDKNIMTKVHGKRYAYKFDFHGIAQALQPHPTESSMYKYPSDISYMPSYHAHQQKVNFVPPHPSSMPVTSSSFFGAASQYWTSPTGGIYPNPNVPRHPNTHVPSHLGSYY", "T1 sequence (Q01844 1-656)": "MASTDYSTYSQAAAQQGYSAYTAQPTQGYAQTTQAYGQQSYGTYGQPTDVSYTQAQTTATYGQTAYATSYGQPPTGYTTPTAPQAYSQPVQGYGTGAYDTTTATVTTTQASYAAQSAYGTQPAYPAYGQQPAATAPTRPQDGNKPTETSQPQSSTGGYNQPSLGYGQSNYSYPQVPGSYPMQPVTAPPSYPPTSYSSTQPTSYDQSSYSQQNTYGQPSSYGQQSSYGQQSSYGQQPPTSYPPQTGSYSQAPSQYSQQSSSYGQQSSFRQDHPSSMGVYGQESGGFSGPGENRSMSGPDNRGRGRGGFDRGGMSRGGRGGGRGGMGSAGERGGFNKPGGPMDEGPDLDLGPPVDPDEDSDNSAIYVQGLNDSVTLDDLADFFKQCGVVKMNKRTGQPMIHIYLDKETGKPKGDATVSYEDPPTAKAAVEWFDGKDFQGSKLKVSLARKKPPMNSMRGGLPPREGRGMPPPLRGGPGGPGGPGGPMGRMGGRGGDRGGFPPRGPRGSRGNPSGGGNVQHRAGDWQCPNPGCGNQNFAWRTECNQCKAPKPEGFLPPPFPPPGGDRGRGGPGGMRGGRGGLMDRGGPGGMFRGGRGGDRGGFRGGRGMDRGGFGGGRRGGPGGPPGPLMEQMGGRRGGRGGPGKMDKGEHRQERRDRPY", "assay": "Surface plasmon resonance (Biacore) binding to EWS-FLI1", "conditions": "SPR, EWS-FLI1 immobilized on CM5 chip", "experimental": "Antp is conjugated to the amino terminal of all peptides used in these studies. Recombinant EWS-FLI1 (MW 55 kDa) was covalently linked to a CM5 chip at a density of 1200 RU, and E9RP (MW 4 kDa) was evaluated for binding. The E9RP analyte concentrations ranged from 0.03-30 μM, and all are shown in duplicate. E9RP bound to EWS-FLI1 with a KD of 4.0 μM.\nAn assay that will identify whether a peptide can disrupt RHA from interacting with EWS-FLI1 was developed. The Biacore device is a biosensor that utilizes surface plasmon resonance (SPR) to measure the strength of molecular interactions. SPR is the sensitive measurement of […] light based upon alterations of surface characteristics that change with molecules binding to a surface. The Biacore device combines SPR with a microfluidic system.\nThe KD of E9RP binding to EWS-FLI1 was calculated to be 4.0 μM (FIG. 4).\nA surface plasmon resonance assay using the Biacore T100 was established with EWS-FLI1, prepared in our laboratory as previously published (Uren, A., Tcherkasskaya, O. & Toretsky, J. A. Recombinant EWS-FLI1 oncoprotein activates transcription. Biochemistry 43, 13579-13589 (2004)). DNA oligonucleotides were used to quality control the proper conformation of EWS-FLI1 on the surface of a CM5 chip. […]", "note": "For at least one compound, name, drawing or mass did not settle the structure. Residues, ends and D or L forms follow the SMILES beside them. *: point of attachment. FITC = O=C1OC2(c3ccc(O)cc3Oc3cc(O)ccc32)c2ccc(NC(=S)*)cc21"}
{"molecule": "CC[C@H](C)[C@H](NC(=O)[C@H](CCCCN)NC(=O)[C@@H](NC(=O)[C@H](CCC(N)=O)NC(=O)[C@H](CCCNC(=N)N)NC(=S)Nc1ccc2c(c1)C(=O)OC21c2ccc(O)cc2Oc2cc(O)ccc21)[C@@H](C)CC)C(=O)N[C@@H](Cc1c[nH]c2ccccc12)C(=O)N[C@@H](Cc1ccccc1)C(=O)N[C@@H](CCC(N)=O)C(=O)N[C@@H](CC(N)=O)C(=O)N[C@@H](CCCNC(=N)N)C(=O)N[C@@H](CCCNC(=N)N)C(=O)N[C@@H](CCSC)C(=O)N[C@@H](CCCCN)C(=O)N[C@@H](Cc1c[nH]c2ccccc12)C(=O)N[C@@H](CCCCN)C(=O)N[C@@H](CCCCN)C(=O)N1CCC[C@H]1C(=O)N1CCC[C@H]1C(=O)N1CCC[C@H]1C(=O)N[C@@H](CC(C)C)C(=O)N[C@@H](CC(=O)O)C(=O)N[C@@H](C)C(=O)N[C@H](C(=O)N[C@H](C(=O)N[C@@H](CCC(=O)O)C(=O)N[C@@H](C)C(=O)O)[C@@H](C)CC)C(C)C", "note": "[E9RP] ({FITC}-RQIKIWFQNRRMKWKKPPPLDAVIEA-OH; C-terminus assumed)", "values": [{"measurement": "Kd", "result": 4, "unit": "µM"}]}
